Library screening results

By UniProt entry, the sequences of proteins in these tests, tags left out.
UniProt E9BF75, entry or part of it: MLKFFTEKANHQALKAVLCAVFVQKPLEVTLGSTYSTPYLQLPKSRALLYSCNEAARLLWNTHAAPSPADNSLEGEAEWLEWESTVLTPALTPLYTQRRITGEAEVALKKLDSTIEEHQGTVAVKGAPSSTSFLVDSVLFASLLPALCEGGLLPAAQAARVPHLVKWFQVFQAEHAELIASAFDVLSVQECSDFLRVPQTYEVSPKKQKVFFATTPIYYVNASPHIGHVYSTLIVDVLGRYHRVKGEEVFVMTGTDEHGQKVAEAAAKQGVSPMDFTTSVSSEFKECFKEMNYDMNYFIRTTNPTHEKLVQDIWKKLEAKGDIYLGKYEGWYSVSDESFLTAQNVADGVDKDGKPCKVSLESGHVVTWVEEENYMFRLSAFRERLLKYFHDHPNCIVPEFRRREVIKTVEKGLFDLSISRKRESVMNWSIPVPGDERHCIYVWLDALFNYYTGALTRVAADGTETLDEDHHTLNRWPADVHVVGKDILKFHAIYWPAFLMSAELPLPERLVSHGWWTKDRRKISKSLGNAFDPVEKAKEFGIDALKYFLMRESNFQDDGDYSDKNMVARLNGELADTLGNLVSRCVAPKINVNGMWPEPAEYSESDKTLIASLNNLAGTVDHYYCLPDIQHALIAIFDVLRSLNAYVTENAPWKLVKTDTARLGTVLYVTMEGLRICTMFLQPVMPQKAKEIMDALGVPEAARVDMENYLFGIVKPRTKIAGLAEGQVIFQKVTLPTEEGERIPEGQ

Measurements from “University of Dundee, Small-Polar-MMV Screening Library” (2021), ChEMBL document CHEMBL3988442.

Mtb heat-shock: 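Assay on Mycobacterium tuberculosis, filed only as a heat shock assay from Cornell; the read-out is not stated. The concentration is filed as 10 mM, unlikely as a test dose, so the dose is not known. Direction is inferred from retests: higher values go with stronger inhibition. Size under these conditions: about 69,000 compounds, about 930 of them at 50% or above in at least one test.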
LdMetRS: 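Primary screen of methionyl-tRNA synthetase; the read-out is not stated. Target: Methionyl-tRNA synthetase (putative), Leishmania donovani (UniProt E9BF75). The test concentration is not given. The values are filed as inhibition. Size under these conditions: about 68,000 compounds, about 24 of them at 50% or above in at least one test.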

All values are in %.
The record does not define 0% and 100%; most values in the screen are far below 50% and negative numbers occur (in some assays of this library far below -100).
Compounds were drawn at random from those tested, without regard to their results.
A dash means the value is not listed here; it may have been measured.

compound: Cc1nc2c(c(NCC(O)C(F)(F)F)n1)CCNCC2 (configuration not stated)
Mtb heat-shock: -22.47
LdMetRS: -1.344

compound: O=C(NCCN1CCCC(CO)C1)c1ccc2scnc2c1 (configuration not stated)
Mtb heat-shock: -1.504
LdMetRS: 19.23

compound: O=C(Nc1cc(-c2ccncc2)no1)C1CCCCC1
Mtb heat-shock: -6.637
LdMetRS: 14.29

compound: O=C(O)c1c(-c2ccncc2)ncc2c1CCN(CC1CCOC1)C2 (configuration not stated)
LdMetRS: 7.625

compound: Cl.c1ncc(-c2ccc(C3CNCCO3)nc2)cn1 (configuration not stated)
Mtb heat-shock: -2.103

compound: C=C(C)COc1cccc(CNC(COC)c2ccnn2C)c1 (configuration not stated)
Mtb heat-shock: -16.15
LdMetRS: 16.05

compound: Fc1cnc(N2CCCC3(CN(Cc4ccncc4)CCO3)C2)nc1.O=C(O)C(F)(F)F.O=C(O)C(F)(F)F (configuration not stated)
Mtb heat-shock: 10.78

compound: CC(C)n1nc2c(cc1=O)CN(CCOc1ccccc1C#N)CC2
Mtb heat-shock: 3.029
LdMetRS: 16.43

compound: COc1ccc(OCC(C)NS(C)(=O)=O)cc1 (configuration not stated)
Mtb heat-shock: 8.613
LdMetRS: 12.32

compound: CNC(=O)[C@@H]1C[C@H]2CN(Cc3nccs3)C[C@H]2N1C
LdMetRS: 10.44

compound: Cn1cccc1C(=O)N1C[C@@H]2C[C@@H](c3nnc(C4CC4)o3)O[C@@H]2C1
LdMetRS: 15.5

compound: O=C(c1ccc(F)cc1)N1CCN2C[C@H](OCc3ccccn3)C[C@H]2C1
LdMetRS: 13.8

compound: CC(C)(C)n1cc(C2=CCN(CCNC(N)=O)CC2)cn1
Mtb heat-shock: -4.974
LdMetRS: 13.86

compound: c1ccc(OCc2nnc3n2CCN(CC2CCOCC2)C3)nc1
LdMetRS: 4.721

compound: CCn1nc(C)c2c1cnn2CCNS(=O)(=O)CC
Mtb heat-shock: 6.836
LdMetRS: 17.85

compound: CCOC1CC2(CCN(CCO)CC2)c2ccc(C)cc21 (configuration not stated)
Mtb heat-shock: -17.27
LdMetRS: 9.774

compound: c1ccc(NCc2cnc3n2CCN(CC2CCOC2)CC3)nc1 (configuration not stated)
LdMetRS: 12

compound: Cc1ccc(C(=O)NCCCNS(C)(=O)=O)cc1-n1cccc1
Mtb heat-shock: 8.584
LdMetRS: 12.68

compound: C[C@@H]1CN(Cc2cccnc2)C[C@]12CCN(CCN1CCCC1)C2=O
LdMetRS: 14.42

compound: c1ccc2sc(N3CCOC(Cn4cccn4)C3)nc2c1 (configuration not stated)
Mtb heat-shock: 2.203
LdMetRS: 14.38

compound: COc1ccc(C[C@@H]2CC[C@H](CN(C)C3CCN(C)CC3)O2)cc1
Mtb heat-shock: -14.52
LdMetRS: 0

compound: O=C(O)C(F)(F)F.O=C(O)C(F)(F)F.[H][C@]12CCN(c3ncc(F)cn3)[C@@]1([H])CC[C@H](COCc1ccccn1)O2
Mtb heat-shock: -14.39

compound: COCC(=O)N1CCC2(CCc3ccc(F)cc32)CC1
LdMetRS: 11.59

compound: CCCn1cnnc1-c1nc2c([nH]1)CC(c1ccc(Cl)cc1)CNC2=O (configuration not stated)
Mtb heat-shock: 1.803
LdMetRS: 1.229

compound: CSc1cc2c(cc1NC(=O)NCC(C)(C)C(N)=O)OCCO2
Mtb heat-shock: -3.553
LdMetRS: 19.05

compound: CC(C)CNC(=O)CN(CC(=O)NCC(C)C)S(C)(=O)=O
Mtb heat-shock: 3.876
LdMetRS: 12.15

compound: COCCN1CCC2(CC1)CC1(CCN(S(C)(=O)=O)CC1)N(C)C2=O.O=C(O)C(F)(F)F
Mtb heat-shock: -9.096

compound: CC(=O)N1CC(C)CN(Cc2ccon2)c2ccccc21 (configuration not stated)
Mtb heat-shock: -5.676
LdMetRS: 15.32

compound: O=C(O)C(F)(F)F.O=C(c1c[nH]cn1)N1CCOCC2(C1)CN(c1ccccc1)C(=O)CO2 (configuration not stated)
Mtb heat-shock: -20.65

compound: Cc1nn(C)c(C)c1-c1ccnc(N(C)Cc2nc(C(C)C)no2)n1
Mtb heat-shock: -3.235
LdMetRS: 15.32

compound: CCCc1nnc(N(C)CC2CCN(CC(C)C)C2)o1 (configuration not stated)
Mtb heat-shock: 15.21
LdMetRS: 13.71

compound: CC(=O)N1CCCC(c2ccc(Br)cn2)C1 (configuration not stated)
Mtb heat-shock: -10.83
LdMetRS: 11.65

compound: Cc1cc(F)ccc1N1CCCC(Nc2nccn3cnnc23)C1=O (configuration not stated)
Mtb heat-shock: -15.5
LdMetRS: 12.68

compound: CCn1c(C)nnc1SCCNc1nc(C)ncc1S(C)(=O)=O
Mtb heat-shock: -2.085
LdMetRS: 9.045

compound: O=C(Cc1ccccc1)NC[C@H]1Cn2ccnc2CO1
Mtb heat-shock: -10.11
LdMetRS: 3.729

compound: Cn1cnc2c1CCN(Cc1nc(COc3ccc(F)cc3)no1)C2
Mtb heat-shock: 1.137
LdMetRS: 9.449

compound: Cc1noc(C)c1CN1CC[C@@H]2O[C@@H](COCC(C)C)CC[C@@H]21
LdMetRS: 17.15

compound: CCc1nc(CN(C)C(=O)c2cc(NC(C)=O)ccc2Cl)no1
Mtb heat-shock: -2.649
LdMetRS: 10.2

compound: Cc1ncncc1-c1ccnc(N)n1
Mtb heat-shock: -0.2767
LdMetRS: 10.44

compound: CN(Cc1cn2c(n1)CN(Cc1nccs1)CC2)Cc1ccco1.O=C(O)C(F)(F)F.O=C(O)C(F)(F)F
Mtb heat-shock: -0.4742

compound: COc1cccc(CN2CCOC(Cn3nc(C)cc3C)C2)c1 (configuration not stated)
Mtb heat-shock: 9.328
LdMetRS: 14.29

compound: CCOCc1nn(CC2CC2)c2c1CN(Cc1cccs1)CC2
LdMetRS: 15.06

compound: O=C1C[C@H]2[C@@H](CCN2Cc2ccccn2)N1CCN1CCOCC1
LdMetRS: 3.922

Some entries from above, unchanged:

| compound | Mtb heat-shock | LdMetRS |
|---|---|---|
| `c1ccc2sc(N3CCOC(Cn4cccn4)C3)nc2c1` (configuration not stated) | 2.203 | 14.38 |
| `O=C(Cc1ccccc1)NC[C@H]1Cn2ccnc2CO1` | -10.11 | 3.729 |
| `Cc1noc(C)c1CN1CC[C@@H]2O[C@@H](COCC(C)C)CC[C@@H]21` | - | 17.15 |
| `CSc1cc2c(cc1NC(=O)NCC(C)(C)C(N)=O)OCCO2` | -3.553 | 19.05 |
| `C=C(C)COc1cccc(CNC(COC)c2ccnn2C)c1` (configuration not stated) | -16.15 | 16.05 |
| `Cc1cc(F)ccc1N1CCCC(Nc2nccn3cnnc23)C1=O` (configuration not stated) | -15.5 | 12.68 |